# Test results as given in PubChem BioAssay AID2517 (National Center for Advancing Translational Sciences (NCATS), 2010).
# Sequences of proteins named here, by UniProt entry; tags and fusion partners are left off.
# UniProt P27695, whole entry, looked up: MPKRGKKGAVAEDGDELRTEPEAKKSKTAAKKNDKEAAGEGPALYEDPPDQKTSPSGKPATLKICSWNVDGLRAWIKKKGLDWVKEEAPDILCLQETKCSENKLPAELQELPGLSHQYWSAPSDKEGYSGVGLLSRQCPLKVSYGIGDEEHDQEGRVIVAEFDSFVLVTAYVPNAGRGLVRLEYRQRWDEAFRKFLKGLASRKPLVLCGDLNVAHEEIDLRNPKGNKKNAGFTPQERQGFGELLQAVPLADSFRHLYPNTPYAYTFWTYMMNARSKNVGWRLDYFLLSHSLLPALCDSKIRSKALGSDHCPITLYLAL
# The whole screen tested about 350,000 compounds, of which about 1,200 (0.34%) were called active. This list was built around the results that the source calls inconclusive (neither active nor inactive); the mix of calls is not that of the screen. Calls come from the whole dose curve; as a rule, active = well fitted inhibition curve with a large enough effect; inconclusive = small, poorly fitted or top-dose-only effect; inactive = no such curve, though single readings can be large or run the other way. A potency beside an inconclusive call is a rough fit, not a confirmed value.
# Target: DNA repair nuclease/redox regulator APEX1 (Homo sapiens) (UniProt P27695)
# Test: qHTS Assay for Inhibitors of the Human Apurinic/apyrimidinic Endonuclease 1 (APE1); note: nearly all actives have a fitted effect of over 55% in size;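 for activity change, negative = inhibition: plate controls were vehicle for no effect and reference inhibitor for full effect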
# Conditions: recombinant APE1, TAMRA/BHQ-2 abasic DNA cleavage fluorescence; activity change, negative = inhibition: at 65.8 µM (top of the series)
# Procedure, shortened: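 Endonuclease cleavage of a quenched abasic-site DNA duplex (50 nM) by APE1 (0.75 nM) was tracked by TAMRA dequenching. Compounds were preincubated with enzyme 15 min at room temperature; data normalized to buffer-only and DMSO wells plus NSC13755 control.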
# Potency is the fitted concentration of half-maximal effect.
SMILES,"activity change, negative = inhibition",Potency
CN(CC(=O)Nc1ccc(Cl)cc1)C(=O)c1cccc(S(=O)(=O)NCc2ccccc2)c1,inactive: -3.77%,
COc1ccc(NC(=O)CN(c2ccccc2)S(=O)(=O)N(C)C)cc1Cl,inactive: 14.5%,
O=C(c1ccc(N2CCN(C(=O)c3ccc(F)cc3F)CC2)cc1)c1cccc(F)c1,inactive: -13.2%,
CCCCOc1ccc(C2CC(=O)NC2=O)cc1 (stereo not drawn),,"inconclusive: 7.94 µM [inhibitor, single point]"
Cc1ccc(C(=O)O/N=C(\N)c2ccccn2)c(C)c1,inactive: 12.6%,
CCc1cc2c(=O)c(-c3nc4ccccc4n3C)coc2c(CN2CCCCC2C)c1O (stereo not drawn),,"inconclusive: 33.6 µM [inhibitor, single point]"
CC1CC(=O)Nc2ccccc2N1S(=O)(=O)c1ccc(Cl)cc1 (stereo not drawn),,"inconclusive: 3.55 µM [inhibitor, single point]"
CCOc1ccc(-c2nc3n(c(=O)c2C#N)CCS3)cc1,,"inconclusive: 20 µM [inhibitor, single point]"
Cc1c(C(=O)O)sc2nc(/C=C/c3cccc(F)c3)[nH]c(=O)c12,,"inconclusive: 37.7 µM [inhibitor, single point]"
Cc1csc(NC(=O)c2cc3c(C)nn(Cc4ccccc4Cl)c3s2)n1,,"inconclusive: 14.1 µM [inhibitor, single point]"
c1nc(NC2CCCCCC2)c2[nH]cnc2n1,,active: 141 µM
Cc1ccc(S(=O)(=O)c2cc3c(=O)n4ccccc4nc3n(CC3CCCO3)c2=N)cc1C (stereo not drawn),inactive: 0.323%,
CCOc1cc(N2CCOCC2)c(OCC)cc1NC(=O)CSc1n[nH]c(N)n1,,"inconclusive: 1.12 µM [inhibitor, full curve]"
CC1CN(C(=O)CCC(=O)NCc2ccccc2)c2ccccc2S1 (stereo not drawn),inactive: -11.3%,
O=c1c(CCc2ccccc2)nc2cnc(N3CCNCC3)nc2n1CCc1ccccc1,inactive: -3.35%,
CC(=O)Nc1ccc(C2CC(c3ccc(Cl)cc3)=NN2c2ccccc2)cc1 (stereo not drawn),inactive: 10.3%,
COc1ccccc1-c1nccc(NCc2cccs2)n1,inactive: -5.73%,
Cc1ccc(S(=O)(=O)N(CCC#N)C2CCCCC2)c2nsnc12,,"inconclusive: 7.94 µM [inhibitor, partial curve]"
CCOC(=O)CSc1nc(N)c(C#N)cc1C#N,,"inconclusive: 31.6 µM [inhibitor, single point]"
O=C(OCC(=O)N1CCCC1=O)C1COc2ccccc2O1 (stereo not drawn),,"inconclusive: 0.0398 µM [inhibitor, full curve]"
CCc1nc2ccc(C(=O)NCCc3ccc(OC)c(OC)c3)cc2nc1CC,inactive: 57.7%,
Cc1cccc(C)c1OC(=O)C(c1ccccc1)c1ccccc1,,"inconclusive: 7.94 µM [inhibitor, single point]"
O=C(NC(=S)NNC(=O)c1ccccc1O)c1ccco1,inactive: -1.33%,
CCOc1ccc(NCC2CCOC(C)(C)C2)cc1 (stereo not drawn),,"inconclusive: 31.6 µM [inhibitor, single point]"
O=C(NCC(c1ccco1)N1CCCC1)c1ccc(S(=O)(=O)Nc2ccccc2Cl)cc1 (stereo not drawn),inactive: 17.4%,

# Record cards (already shown).
# `O=C(NC(=S)NNC(=O)c1ccccc1O)c1ccco1` is listed with activity change, negative = inhibition: inactive: -1.33%
# `Cc1cccc(C)c1OC(=O)C(c1ccccc1)c1ccccc1` is listed with Potency: inconclusive: 7.94 µM [inhibitor, single point]
# `CC1CC(=O)Nc2ccccc2N1S(=O)(=O)c1ccc(Cl)cc1` (stereo not drawn) is listed with Potency: inconclusive: 3.55 µM [inhibitor, single point]
# `CCOc1cc(N2CCOCC2)c(OCC)cc1NC(=O)CSc1n[nH]c(N)n1` is listed with Potency: inconclusive: 1.12 µM [inhibitor, full curve]

# More structures

SMILES,"activity change, negative = inhibition",Potency
CCC(=O)Nc1c(C)n[nH]c1C,,"inconclusive: 7.08 µM [inhibitor, single point]"
Cc1ccc(NC(=O)CN2C(=O)NC(Cc3ccccc3)C2=O)c(Br)c1 (stereo not drawn),,"inconclusive: 28.2 µM [inhibitor, single point]"
O=C(N/N=C/c1coc2ccccc2c1=O)c1cc(Br)c(O)c(Br)c1,inactive: 12.4%,
C=CCn1c(NS(=O)(=O)c2ccccc2)c(S(=O)(=O)c2ccc(C)cc2)c2nc3ccccc3nc21,inactive: 5.09%,
COc1cccc(C(=O)NNC2=C(C(=O)C(F)(F)F)CCC2)c1,,"inconclusive: 8.91 µM [inhibitor, single point]"
Cc1ccc(C(=O)N2c3ccccc3N(Cc3ccccc3)C(=O)C2(C)C)cc1,,"inconclusive: 3.55 µM [inhibitor, partial curve]"
COC(=O)C1=CN(c2ccc(F)cc2)C=C(C(=O)OC)C1c1ccc(O)cc1,inactive: 38.1%,
CCOC(=O)N1CCN(Cc2nc3c(c(=O)n(C)c(=O)n3C)n2CCC(C)C)CC1,,"inconclusive: 2 µM [inhibitor, single point]"
COc1ccc(CN2C(=O)c3ccccc3C2C(=O)NC2CCC(C)CC2)c(OC)c1 (stereo not drawn),inactive: 0.252%,
O=C1/C(=C\c2ccc(O)c(O)c2)Oc2cc(O)ccc21,,"inconclusive: 14.1 µM [inhibitor, partial curve]"
O=C(Nc1nnc(C2CC2)s1)c1cccnc1Oc1ccc(Cl)cc1,,"inconclusive: 3.55 µM [inhibitor, single point]"
N/C(Cc1ccc(Cl)c(Cl)c1)=N\OC(=O)c1cccs1,inactive: -3.42%,
O=C(CSc1ccsc1[N+](=O)[O-])N1CCCCC1,,"inconclusive: 3.98 µM [inhibitor, full curve]"
Cc1cc(NNC(=O)c2ccccc2)nc(NNC(=O)c2ccccc2)n1,,"inconclusive: 7.94 µM [inhibitor, single point]"
CCOC(=O)C(C(=O)OCC)C(C(=O)OCC)N1CCOCC1 (stereo not drawn),,"inconclusive: 3.98 µM [inhibitor, single point]"
Nc1nc(NCC2CCC(CNS(=O)(=O)c3cccc4ccccc34)CC2)nc2ccccc12 (stereo not drawn),,"inconclusive: 3.98 µM [inhibitor, partial curve, poor fit]"
CC[C@H](C)[C@@H]1NC(=O)c2cc([N+](=O)[O-])cc(I)c2SC[C@@H](C(N)=O)NC(=O)[C@H](CCCCN)NC1=O,,"inconclusive: 8.91 µM [inhibitor, partial curve]"
Cc1cc(-c2sccc2C)nc(-n2cccc2)n1,,"inconclusive: 20 µM [inhibitor, partial curve]"
CC(C)(C)c1cc(=O)n2c(C#N)c(C#N)nc2[nH]1,,"inconclusive: 22.4 µM [inhibitor, single point]"
CN1C(=O)C(CC(N)=O)N(NC(=O)c2ccc(Cl)cc2)C1=S (stereo not drawn),,"inconclusive: 0.1 µM [inhibitor, partial curve, poor fit]"
Cc1cc(C)c2c(CC(=O)O)c(C)[nH]c2c1,,"inconclusive: 31.6 µM [inhibitor, single point]"
CCCC(=O)Nc1ccc2oc(=O)ccc2c1,,"inconclusive: 44.7 µM [inhibitor, single point]"
COc1ccc2nc(Nc3ccccc3OC)sc2c1,,"inconclusive: 28.2 µM [inhibitor, partial curve]"
NC(=O)c1cc(-c2ccccc2)sc1NC(=O)CN1CCCCC1,,"inconclusive: 44.7 µM [inhibitor, single point]"
CCOc1cccc(=O)c2c(C)oc(C)c12,,"inconclusive: 3.55 µM [inhibitor, single point]"

SMILES,"activity change, negative = inhibition",Potency
Cc1ccc(C(=O)Cn2c3c(sc2=N)CCCC3)cc1,,"inconclusive: 3.16 µM [inhibitor, full curve, poor fit]"
CCOC(=O)C1=C(C)NC(=O)NC1c1ccc(N2CCC(c3ccccc3)=N2)cc1 (stereo not drawn),,"inconclusive: 44.7 µM [inhibitor, single point]"
O=C(N/N=C/c1ccc(O)c(O)c1)N/N=C/c1ccc(O)c(O)c1,inactive: -95.4%,
c1ccn2cc(-c3ccc4c(c3)OCCO4)nc2c1,,"inconclusive: 1.26 µM [inhibitor, full curve, poor fit]"
O=C(CSc1ccc(-c2ccco2)nn1)c1cccc([N+](=O)[O-])c1,inactive: -4.38%,
O=C(CCN1C(=O)S/C(=C\c2ccccc2)C1=O)Nc1ccc(S(=O)(=O)Nc2nccs2)cc1,inactive: 1.29%,
Nc1nonc1C(=O)N/N=C/c1cc(Br)ccc1O,inactive: -1.24%,
CCn1c(-c2ccc(F)cc2)n[nH]c1=S,,"inconclusive: 2.24 µM [inhibitor, partial curve]"
C=CCC1C=CC(OC(=O)OCC)C(COC(=O)OCC)O1 (stereo not drawn),,"inconclusive: 3.55 µM [inhibitor, single point]"
Cc1[nH][nH]c(=O)c1C(c1ccc(-c2ccc(Cl)c(Cl)c2)o1)c1c(C)[nH][nH]c1=O,,"inconclusive: 1 µM [inhibitor, full curve, poor fit]"
CC(C)(C)[C@@H](O)C(Cc1ccc(Cl)cc1)n1cncn1 (stereo partly drawn),inactive: -5.45%,
O=C(O)CCNC(=O)c1ccc(NC(=O)Cc2ccc(Cl)cc2)cc1,inactive: -2.1%,
c1ccc(Nc2nc(-c3ccc4c(c3)OCO4)nc3ccccc23)cc1,,"inconclusive: 44.7 µM [inhibitor, single point]"
CN(C)N=Nc1ccc(S(N)(=O)=O)cc1,inactive: 20%,
Cc1[nH]n(-c2ccccc2)c(=S)c1C=Nc1cccc([N+](=O)[O-])c1,inactive: -3.11%,
O=C(O)c1ccc2c(c1)CC(c1ccccc1)OC2=O (stereo not drawn),,"inconclusive: 0.631 µM [inhibitor, full curve, poor fit]"
Nc1nc(N)c2nc(-c3ccccc3)c(N)nc2n1,,"inconclusive: 12.6 µM [inhibitor, partial curve, poor fit]"
COc1cc(Cl)c(C)cc1NC(=O)c1ccc2c(SCC(=O)O)c3c(nc2c1)CCCC3,inactive: 10%,
CC(=O)N1CCN(S(=O)(=O)c2cccc(C(=O)Nc3nc4c(s3)CCCC4)c2)CC1,,"inconclusive: 35.5 µM [inhibitor, single point]"
CCN(CC)S(=O)(=O)c1ccc2c(c1)nc(CCC(=O)Nc1cccc(C(F)(F)F)c1)n2CC,,"inconclusive: 44.7 µM [inhibitor, single point]"
S=c1[nH]nc(-c2ccc3ncccc3c2)n1-c1ccc2c(c1)OCCO2,inactive: 11.5%,
COCc1cc(C)nc(OCC(=O)N/N=C/c2ccc(OC)c(OC)c2)c1C#N,,"inconclusive: 4.47 µM [inhibitor, full curve, poor fit]"
Cn1nc(-c2ccc(C(=O)Nc3ccc(F)cc3)cc2)c2ccccc2c1=O,inactive: 0.652%,
